Results on one molecule are retold here after patent US20030083261A1, “Class of 12mer peptides that inhibit the function of the mitotic check point protein Mad2” (priority 2001, published 2003).

Sequences of proteins named here, by UniProt entry; tags and fusion partners are left off.
UniProt Q13257: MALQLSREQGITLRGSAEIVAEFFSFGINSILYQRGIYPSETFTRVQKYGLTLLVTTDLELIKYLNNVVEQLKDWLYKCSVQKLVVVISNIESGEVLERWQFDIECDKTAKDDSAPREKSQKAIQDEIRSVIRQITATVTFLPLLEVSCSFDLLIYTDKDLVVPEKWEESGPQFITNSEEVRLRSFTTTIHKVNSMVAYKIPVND

No constants are given. Whether binding was seen depends on the method and setting. Some entries that bind do so weakly or less than the wild type. Tags and fused reporters may be left off the sequences shown.

In experiment [1] the target is Mad2 protein (mitotic checkpoint protein Mad2, purified recombinant) (UniProt Q13257). The experiment can be described thus: NMR HSQC of Mad2 with MBP2.
For experiment [2] the target is unchanged. As to the kind of experiment: NMR HSQC competition on 15N-Mad2, competitors Cdc20P1 and MBP1.

B1: MBP2 (Mad2-binding peptide 2, Cdc20-like peptide) (peptide)
peptide: DARIIKLPVPKP
Turning to B1, the binding entry in experiment [1] and in experiment [2] was “binds” each time.
